According to the supplement of paper PMC12823440, “Inhibitors supercharge kinase turnover through native proteolytic circuits” (Nature, 2025):
Where a name gives a salt, the structure may show the parent alone. The list shows a part of the results. Hit calls seldom repeat between salt and free forms of one compound.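 Kinases were expressed as nanoluciferase fusions in K562 cells and luminescence was read every 4 h between 2 and 18 h as percent of control, DMSO set to 100% and a positive control to 0%. A time point counts as decreased when the signal drops significantly (2 sigma). The hit call is the authors' own, does not follow from the count of time points alone, and its rule is not shown.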

The chains behind the UniProt entries cited, without tags or fusion partners. Where a name states a change or a piece, a line headed by the entry shows the natural chain unless it says otherwise.
UniProt P07948: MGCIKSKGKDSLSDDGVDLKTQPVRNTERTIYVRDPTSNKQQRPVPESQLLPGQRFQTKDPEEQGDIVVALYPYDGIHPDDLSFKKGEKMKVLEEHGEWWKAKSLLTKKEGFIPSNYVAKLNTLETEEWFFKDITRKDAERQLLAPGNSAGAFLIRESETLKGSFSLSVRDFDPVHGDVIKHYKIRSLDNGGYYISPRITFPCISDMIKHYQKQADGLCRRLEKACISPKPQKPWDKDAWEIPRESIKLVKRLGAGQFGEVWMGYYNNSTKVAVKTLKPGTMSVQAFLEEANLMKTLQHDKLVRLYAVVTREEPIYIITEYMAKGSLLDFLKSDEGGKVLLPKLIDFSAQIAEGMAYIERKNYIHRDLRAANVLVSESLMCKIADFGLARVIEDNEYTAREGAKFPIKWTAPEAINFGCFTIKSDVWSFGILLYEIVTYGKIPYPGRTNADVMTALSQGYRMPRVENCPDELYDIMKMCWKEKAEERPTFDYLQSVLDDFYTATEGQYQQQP

molecular target: LYN (UniProt P07948); experiment: number of time points (of 5) at which kinase-Nluc abundance scored as decreased, DMSO-normalised (count); higher = more persistent destabilization; details: K562; 2-18 h

SMILES	number of time points
C=CC(=O)N1CCC(c2ccc(C(N)=O)c(-c3ccc(Oc4ccccc4)cc3)n2)CC1 [Orelabrutinib] (2.5 µM)	0
CN1C(=O)N[C@@H](Cc2c[nH]c3c(Cl)cccc23)C1=O [Necrostatin 2 (S enantiomer)] (10 µM)	0
N#Cc1cc(-c2ccnc(Nc3ccc(N4CCOCC4)cc3)n2)ccc1OC1CCOCC1 (10 µM)	0
COc1cccc(-c2cc(=O)c3ccccc3o2)c1N (10 µM)	0
Nc1ccc(Sc2nc3ccccc3s2)c(Cl)c1 [KRAS inhibitor-9] (10 µM)	0

molecular target: MAP2K1 (UniProt Q02750); experiment: as above; details: K562; 2-18 h

SMILES	number of time points
Cc1cnc(Cl)nc1-c1ccc(N(Cc2ccc(CNC(=O)C(F)F)cc2)C(=O)c2ccc(O)cc2O)cc1 (10 µM)	0
COc1cc2c(cc1OC)[C@@H]1C(=O)c3ccc4c(c3O[C@@H]1CO2)C=CC(C)(C)O4 [Deguelin] (10 µM)	0
CC(C)(CCCCCC(O)CCCCCC(C)(C)C(=O)O)C(=O)O [Bempedoic acid] (10 µM)	0
COc1cc2nnc(C(N)=O)c(Nc3ccc(C)cc3F)c2cc1N1CCN(CCO)CC1 (2.5 µM)	0
O=C(Nc1ccc(Cl)cc1)C1CN(C(=O)c2cccc(-c3ccco3)c2)CC(F)(F)C1 (stereo not drawn) (2.5 µM)	0
CC(=O)O[C@@H]1[C@@H](OC(C)=O)[C@@H](O)[C@H](Oc2c(-c3ccc(O)cc3)oc3cc(O)cc(O)c3c2=O)O[C@H]1C (10 µM)	0
COc1cc2nc(-c3cc(F)ccc3O)nc(N[C@@H]3CNC[C@H]3C(C)(C)O)c2cc1OC (2.5 µM)	0
C=CC(=O)Nc1cccc(Oc2nc(Nc3ccc(N4CCN(C)CC4)cc3OC)ncc2Cl)c1 (10 µM)	0
C=CC(=O)Nc1cc(Nc2nccc(-c3cn(C)c4ccccc34)n2)c(OCC(F)(F)F)nc1N(C)CCNC [AST5902  (trimesylate)] (2.5 µM)	0
O=C1C=CC2=C3c4cc(O)c(O)cc4CC3(O)COC2=C1O (stereo not drawn) [Hematein] (10 µM)	0
CCC(F)(F)c1cc(N2CCC(S(C)(=O)=O)CC2)nc2sc(C(N)=O)c(N)c12 (10 µM)	0
Cn1cc(C2=C(c3ccc(Cl)cc3Cl)C(=O)NC2=O)c2ccccc21 (10 µM)	0
CCOC(=O)c1c(N2CCc3ccc(OC)cc3C2)oc(C=C2C=Nc3ncccc32)c1O (10 µM)	0
O=C(COc1ccc(Cl)cc1)NC1CCC(NC(=O)COc2ccc(Cl)cc2)CC1 (stereo not drawn) [ISRIB (trans-isomer)] (10 µM)	0
COc1ccc(CCNCc2ccc(OCc3ccc(Cl)nc3)c(OC)c2)cc1OC [SBE13 (Hydrochloride)] (10 µM)	0
Cc1cccc(CC(=O)N2CCc3c2ccc(-c2cn(C)c4ncnc(N)c24)c3F)n1 (10 µM)	0
COc1cc(N2CCC(N3CCN(C)CC3)CC2)ccc1Nc1ncnc(Nc2ccccc2S(=O)(=O)C(C)C)n1 (10 µM)	0
CC(C)(Oc1ccc(Cl)cc1)C(=O)Nc1ccc(OCc2ccc(C#N)cc2)cc1 [AMPK activator 4] (10 µM)	0
Cc1cc(N2CCOCC2)ccc1Nc1nc(NC2CCCCC2)c2[nH]cnc2n1 (10 µM)	0

SMILES	number of time points
COC(=O)N1CCN(C2CCC(Nc3nc(Nc4cnn(C)c4)nc4ccc(CC#N)nc34)CC2)CC1 (stereo not drawn) (10 µM)	0
CN(C)CCn1cc2cc(NC(=O)c3cccc(C(F)(F)F)n3)c(C(C)(C)O)cc2n1 (10 µM)	0
CCOc1cc(N2CCC(O)CC2)ccc1Nc1ncc2c(n1)N(C1CCCC1)CCC(=O)N2C (2.5 µM)	0
CCC[C@H](C)Oc1nc(N)c2[nH]c(=O)n(CCCCCN3CCCCC3)c2n1 (10 µM)	0
Fc1ccc(-c2nc3n(c2-c2ccncc2)CCS3)cc1 (10 µM)	0
CC(ONC(=O)c1cc(C(F)(F)F)cc(C(F)(F)F)c1)C(=O)Nc1ccc(Cl)cc1 (stereo not drawn) (2.5 µM)	0
O=C(Nc1ccccc1C(=O)NC1CCCCNC1=O)c1cc2ccccc2s1 (stereo not drawn) (10 µM)	0
N#CC(=C(/N)Sc1ccccc1N)/C(C#N)=C(\N)Sc1ccccc1N (10 µM)	0
Nc1ccc(O)c(C(=O)O)c1 [5-Aminosalicylic Acid] (10 µM)	0
CNCc1ccccc1Sc1cccc2ccccc12 [IFN alpha-IFNAR-IN-1 (hydrochloride)] (10 µM)	0
CCCCNc1ncc2c(-c3ccc(F)cc3)nn(CC3CCC(N)CC3)c2n1 (stereo not drawn) (2.5 µM)	0
Cc1ncsc1-c1ccc(CNC(=O)[C@@H]2C[C@@H](O)CN2C(=O)[C@@H](NC(=O)COCCOc2ccc(-c3cc(Nc4ccc(OC(F)(F)F)cc4)ncn3)cc2)C(C)(C)C)cc1 (2.5 µM)	0
Cn1cnc2c(F)c(Nc3ccc(Br)cc3F)c(C(=O)NOCCO)cc21 [Binimetinib] (10 µM)	0
O=C1NC(=O)C(Cc2c[nH]c3c(Cl)cccc23)N1 (stereo not drawn) [Necroptosis-IN-1] (10 µM)	0
C=CC(=O)N1CCC(c2ccc(C(N)=O)c(-c3ccc(Oc4ccccc4)cc3)n2)CC1 [Orelabrutinib] (2.5 µM)	0
CN1C(=O)N[C@@H](Cc2c[nH]c3c(Cl)cccc23)C1=O [Necrostatin 2 (S enantiomer)] (10 µM)	0
N#Cc1cc(-c2ccnc(Nc3ccc(N4CCOCC4)cc3)n2)ccc1OC1CCOCC1 (10 µM)	0
COc1cccc(-c2cc(=O)c3ccccc3o2)c1N (10 µM)	0
Nc1ccc(Sc2nc3ccccc3s2)c(Cl)c1 [KRAS inhibitor-9] (10 µM)	0
